Molecules are shown by their SMILES.

The data set in a line: Reaction of compound (6) with reactive functional groups (hydroxyl, thiol); recovery of unreacted compound.

Regarding `CCN1C(=CC=CC=CC=CC2=[N+](CCCCCC(=O)N3CCSC3=S)c3ccc4ccccc4c3C2(C)C)C(C)(C)c2c1ccc1ccccc21.[Cl-]` [ICG-ATT (6), 2-[7-(1,3-Dihydro-1,1-dimethyl-3-ethylbenz[e]indolin-2-ylidene)-1,3,5-heptatrienyl]-1,1-dimethyl-3-[[6-[(1,3-thiazolidine-2-thion)-1-yl]-6-oxo]hexyl]-1H-benz[e]indolium Chloride], the “recovered compound (6) after treatment with 2-phenylethyl alcohol” value (acetonitrile, 0° C. 30 minutes then room temperature 30 minutes) was 96%. In addition, the “recovered compound (6) after treatment with 2-phenylethylthiol” value (treated similarly to 2-phenylethyl alcohol) came out at 96%.

The values are drawn from patent publication US6403625B1, “Fluorescent labeling reagents” (Daiichi Pure Chemicals Co., Ltd., priority 1998, dated 2002).
